{"source": "PubChem BioAssay AID1259306 (Sanger Institute, 2017)", "assay": "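Find kinases whose loss reduces colorectal cancer cell viability or aids targeted drugs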 (primary screen)", "system": "human SNU-C5 colorectal cancer cells", "knock-down reagent": "siRNA pool against human genes", "challenge": "DMSO vehicle alone, or one anchor drug: BYL719 at 1 µM, cetuximab at 5 µg/ml or trametinib at 10 nM, given 24 h into the assay", "measured": "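Viability versus non-targeting pool averaged across replicates, given as fraction and robust z-score, and synergy scores for BYL719, cetuximab or trametinib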", "reading the numbers": "robust z-score, knock-down alone: higher = more viable cells", "active means": "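Called essential when the robust z-score for knock-down alone is below -3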", "calls": "active = essential (knock-down alone); inactive = no change alone", "note": "In all, the deposit lists 794 reagents; below is a part drawn at random. 11 of them (1.4%) were called active. 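Calls reflect knock-down alone; synergy scores play no part, so knock-downs synergising with a drug can be called no change.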 Not all columns of the deposit are shown. No sequences are given here. The record does not give: the amount of reagent, the time to read-out."}
{"target gene": "PRKX", "robust z-score, knock-down alone": 0.989, "Outcome": "inactive"}
{"target gene": "JAK3", "robust z-score, knock-down alone": 0.989, "Outcome": "inactive"}
{"target gene": "TESK2", "robust z-score, knock-down alone": 0.868, "Outcome": "inactive"}
{"target gene": "GTF2H1", "robust z-score, knock-down alone": 0.383, "Outcome": "inactive"}
{"target gene": "ATRX", "robust z-score, knock-down alone": 0.625, "Outcome": "inactive"}
{"target gene": "CKB", "robust z-score, knock-down alone": 0.505, "Outcome": "inactive"}
{"target gene": "NUP98", "robust z-score, knock-down alone": -1.56, "Outcome": "inactive"}
{"target gene": "EPHA4", "robust z-score, knock-down alone": 0.415, "Outcome": "inactive"}
{"target gene": "PAK5", "robust z-score, knock-down alone": 0.989, "Outcome": "inactive"}
{"target gene": "MKNK2", "robust z-score, knock-down alone": -0.321, "Outcome": "inactive"}
{"target gene": "NEK11", "robust z-score, knock-down alone": -1.12, "Outcome": "inactive"}
{"target gene": "MARK4", "robust z-score, knock-down alone": 0.915, "Outcome": "inactive"}

As entered above.
Under “Outcome”, ATRX is entered as inactive
Result of EPHA4 under “robust z-score, knock-down alone”: 0.415

The list goes on:
{"target gene": "NLK", "robust z-score, knock-down alone": -0.389, "Outcome": "inactive"}
{"target gene": "ACVR1C", "robust z-score, knock-down alone": 0.989, "Outcome": "inactive"}
{"target gene": "TYRO3", "robust z-score, knock-down alone": 0.989, "Outcome": "inactive"}
{"target gene": "RAF1", "robust z-score, knock-down alone": 0.989, "Outcome": "inactive"}
{"target gene": "PRKCD", "robust z-score, knock-down alone": -0.333, "Outcome": "inactive"}
{"target gene": "PAK3", "robust z-score, knock-down alone": -0.776, "Outcome": "inactive"}
{"target gene": "CDK10", "robust z-score, knock-down alone": -1.05, "Outcome": "inactive"}
{"target gene": "SCYL3", "robust z-score, knock-down alone": 0.45, "Outcome": "inactive"}
{"target gene": "ULK2", "robust z-score, knock-down alone": -0.155, "Outcome": "inactive"}
{"target gene": "FGFR3", "robust z-score, knock-down alone": 0.989, "Outcome": "inactive"}
{"target gene": "CDK8", "robust z-score, knock-down alone": 0.989, "Outcome": "inactive"}
{"target gene": "AK1", "robust z-score, knock-down alone": 0.0336, "Outcome": "inactive"}
{"target gene": "CDK12", "robust z-score, knock-down alone": 0.491, "Outcome": "inactive"}
{"target gene": "PHKG2", "robust z-score, knock-down alone": -0.00287, "Outcome": "inactive"}
{"target gene": "CDK4", "robust z-score, knock-down alone": 0.989, "Outcome": "inactive"}
{"target gene": "AK3", "robust z-score, knock-down alone": -0.0089, "Outcome": "inactive"}
